Assay results taken from patent EP3791713A1.
Results are given in words; binding and its absence hold for the method and conditions named. Some binding calls cover weakened binding; strength is not graded here.

Target: T1, Mp10 (SEQ ID NO:4), factor of Myzus persicae, a member of the OS-D superfamily (Myzus persicae)
T1 sequence: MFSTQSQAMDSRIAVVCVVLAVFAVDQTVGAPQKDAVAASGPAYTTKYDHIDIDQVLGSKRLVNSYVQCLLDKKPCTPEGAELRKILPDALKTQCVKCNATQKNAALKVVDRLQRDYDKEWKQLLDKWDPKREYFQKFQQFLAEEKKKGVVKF
Test: yeast two-hybrid

B1: Arabidopsis thaliana AMSH2 (SEQ ID NO:3), wild type (protein)
chain: MVTLSSPSPSLSCVENVTCKSSHVSRVLISGTDNINHGESSEAKILRDVHISERLLEDFTELARENTEKDLETCGTLAAFLERGIFYVTTLIIPKQESTSNSCQAMNEVEVFSIQNERELYPVGWIHTHPSQGCFMSSVDLHTHYSYQVMVPEAFAIVVAPTDSSKSYGIFKLTDPGGMEVLRGCSETGFHPHKEPEDGNPVYEHCSNVYKNSNLRFEIFDLR
binding: binds
